Assay [1] has as its target GW182 (human (endogenous in U937)) (UniProt Q8NDV7). The experiment in a line: co-IP; lysates of U937/Nef-EYFP or U937/EYFP cells; IP with anti-Nef, anti-Ago2 or anti-GW182 overnight at 4°C, Protein A-agarose, five washes with lysis buffer, western blot. (In western blotting, separated proteins are transferred to a membrane and probed.)
Assay [2] deals with Argonaute 2 (human (endogenous in U937, U1, J1.1, HEK293T)) (UniProt Q9UKV8). Described as above.

By UniProt entry, the sequences of proteins in these tests, tags left out.
UniProt Q8NDV7: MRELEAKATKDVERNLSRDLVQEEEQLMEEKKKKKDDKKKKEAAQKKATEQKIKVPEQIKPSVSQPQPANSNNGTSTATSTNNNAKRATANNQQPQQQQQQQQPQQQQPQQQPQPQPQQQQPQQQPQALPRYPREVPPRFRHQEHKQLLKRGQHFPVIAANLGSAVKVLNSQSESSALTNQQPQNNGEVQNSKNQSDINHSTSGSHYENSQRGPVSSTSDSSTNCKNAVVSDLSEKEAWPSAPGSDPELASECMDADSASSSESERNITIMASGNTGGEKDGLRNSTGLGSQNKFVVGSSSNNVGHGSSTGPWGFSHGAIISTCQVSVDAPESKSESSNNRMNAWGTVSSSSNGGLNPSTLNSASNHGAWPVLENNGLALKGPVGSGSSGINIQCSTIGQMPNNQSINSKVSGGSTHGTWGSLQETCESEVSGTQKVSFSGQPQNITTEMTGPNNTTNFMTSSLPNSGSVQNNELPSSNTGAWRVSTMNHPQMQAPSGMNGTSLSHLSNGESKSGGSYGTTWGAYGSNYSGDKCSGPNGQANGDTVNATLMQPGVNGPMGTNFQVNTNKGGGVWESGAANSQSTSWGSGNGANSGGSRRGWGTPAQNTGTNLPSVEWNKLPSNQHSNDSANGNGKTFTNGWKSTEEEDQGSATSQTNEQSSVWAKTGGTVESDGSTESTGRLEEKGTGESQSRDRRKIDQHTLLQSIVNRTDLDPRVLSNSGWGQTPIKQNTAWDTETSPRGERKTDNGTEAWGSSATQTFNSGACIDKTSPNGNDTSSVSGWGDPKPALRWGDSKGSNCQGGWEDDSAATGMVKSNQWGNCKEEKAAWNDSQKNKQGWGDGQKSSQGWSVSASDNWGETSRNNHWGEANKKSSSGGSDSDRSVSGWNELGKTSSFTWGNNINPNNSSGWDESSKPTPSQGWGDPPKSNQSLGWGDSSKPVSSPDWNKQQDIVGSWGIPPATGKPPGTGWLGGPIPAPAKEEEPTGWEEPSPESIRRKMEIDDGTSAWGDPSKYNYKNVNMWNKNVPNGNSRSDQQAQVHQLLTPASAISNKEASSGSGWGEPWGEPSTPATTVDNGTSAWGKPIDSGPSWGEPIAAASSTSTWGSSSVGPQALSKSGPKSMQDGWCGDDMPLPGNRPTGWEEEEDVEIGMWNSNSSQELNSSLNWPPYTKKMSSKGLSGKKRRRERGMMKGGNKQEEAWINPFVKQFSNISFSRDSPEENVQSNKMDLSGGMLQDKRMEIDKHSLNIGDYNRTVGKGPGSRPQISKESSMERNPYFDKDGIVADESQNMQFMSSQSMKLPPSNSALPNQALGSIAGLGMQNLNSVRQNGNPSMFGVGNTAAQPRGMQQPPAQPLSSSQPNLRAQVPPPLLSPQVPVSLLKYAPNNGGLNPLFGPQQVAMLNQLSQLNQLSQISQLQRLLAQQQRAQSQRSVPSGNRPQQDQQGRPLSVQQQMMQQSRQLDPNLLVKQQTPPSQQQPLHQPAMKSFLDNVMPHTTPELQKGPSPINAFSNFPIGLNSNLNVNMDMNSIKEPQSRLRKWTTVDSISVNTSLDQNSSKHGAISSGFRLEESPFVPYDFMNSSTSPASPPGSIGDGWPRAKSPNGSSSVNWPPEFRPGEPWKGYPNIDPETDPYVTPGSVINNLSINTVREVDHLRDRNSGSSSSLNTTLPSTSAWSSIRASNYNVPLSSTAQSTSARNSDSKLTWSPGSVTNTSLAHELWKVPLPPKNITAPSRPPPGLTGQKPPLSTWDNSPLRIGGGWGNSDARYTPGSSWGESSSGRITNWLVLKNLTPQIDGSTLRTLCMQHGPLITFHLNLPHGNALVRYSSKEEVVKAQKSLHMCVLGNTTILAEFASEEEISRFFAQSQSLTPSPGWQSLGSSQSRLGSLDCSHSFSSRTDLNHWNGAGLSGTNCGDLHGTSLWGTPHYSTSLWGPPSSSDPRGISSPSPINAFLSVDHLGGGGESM
UniProt Q9UKV8: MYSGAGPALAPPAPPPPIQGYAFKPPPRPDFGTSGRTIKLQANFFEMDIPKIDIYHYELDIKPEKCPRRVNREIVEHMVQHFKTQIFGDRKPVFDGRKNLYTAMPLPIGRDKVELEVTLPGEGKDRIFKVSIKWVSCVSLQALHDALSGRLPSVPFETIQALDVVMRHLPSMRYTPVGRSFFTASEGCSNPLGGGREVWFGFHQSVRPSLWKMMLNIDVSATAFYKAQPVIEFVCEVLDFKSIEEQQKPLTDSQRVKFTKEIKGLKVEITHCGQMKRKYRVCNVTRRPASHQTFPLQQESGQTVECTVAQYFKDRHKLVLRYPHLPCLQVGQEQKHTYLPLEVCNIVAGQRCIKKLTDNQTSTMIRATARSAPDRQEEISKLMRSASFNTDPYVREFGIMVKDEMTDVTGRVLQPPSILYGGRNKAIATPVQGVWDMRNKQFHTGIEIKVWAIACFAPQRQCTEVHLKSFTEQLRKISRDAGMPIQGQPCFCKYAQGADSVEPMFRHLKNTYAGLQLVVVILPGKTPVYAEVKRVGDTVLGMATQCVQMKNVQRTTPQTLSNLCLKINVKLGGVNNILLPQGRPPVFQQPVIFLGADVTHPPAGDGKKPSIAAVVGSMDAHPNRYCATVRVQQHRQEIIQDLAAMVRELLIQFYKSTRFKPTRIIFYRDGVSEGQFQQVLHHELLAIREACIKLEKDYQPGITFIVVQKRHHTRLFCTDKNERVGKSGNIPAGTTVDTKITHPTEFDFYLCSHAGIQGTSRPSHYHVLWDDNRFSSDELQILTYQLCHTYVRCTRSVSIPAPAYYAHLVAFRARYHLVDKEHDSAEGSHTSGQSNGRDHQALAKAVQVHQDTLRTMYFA

The results in this text go back to publication PMC3762824.

Results are given in words; binding and its absence hold for the method and conditions named. Binding seen in cells or lysates may run through a third protein. Some binding calls cover weakened binding; strength is not graded here.

Regarding Argonaute 2 (from UniProt Q9UKV8 1-859), the binding entry in assay [1] is given as “binds”.

For the substance GW182 (from UniProt Q8NDV7 1-1962), the binding entry in assay [2] is listed as “binds”.
